Laboratory results published in US10858396B2, “HER2 peptide regents and methods” (THE REGENTS OF THE UNIVERSITY OF MICHIGAN, priority 2015, dated 2020).
Several values for one entry are separate records, joined by “and”; a condition that tells them apart may be missing. Equal values may be shown once. Entries after “also recorded” stand apart in the source; their conditions may differ. Not every detail of the peptide structures is certain; ends, links or a residue may be inferred. Peptide text beside a SMILES is read from it. * marks the point of attachment. X1 = C[N+]1=C(C=CC=CC=C2N(CCCCCC(=O)*)c3ccc4ccccc4c3C2(C)C)C(C)(C)c2c1ccc1ccccc21

Amino acid sequences for entries named in this document (tags omitted). Residues count along the entry.
UniProt P70424, 23-1256: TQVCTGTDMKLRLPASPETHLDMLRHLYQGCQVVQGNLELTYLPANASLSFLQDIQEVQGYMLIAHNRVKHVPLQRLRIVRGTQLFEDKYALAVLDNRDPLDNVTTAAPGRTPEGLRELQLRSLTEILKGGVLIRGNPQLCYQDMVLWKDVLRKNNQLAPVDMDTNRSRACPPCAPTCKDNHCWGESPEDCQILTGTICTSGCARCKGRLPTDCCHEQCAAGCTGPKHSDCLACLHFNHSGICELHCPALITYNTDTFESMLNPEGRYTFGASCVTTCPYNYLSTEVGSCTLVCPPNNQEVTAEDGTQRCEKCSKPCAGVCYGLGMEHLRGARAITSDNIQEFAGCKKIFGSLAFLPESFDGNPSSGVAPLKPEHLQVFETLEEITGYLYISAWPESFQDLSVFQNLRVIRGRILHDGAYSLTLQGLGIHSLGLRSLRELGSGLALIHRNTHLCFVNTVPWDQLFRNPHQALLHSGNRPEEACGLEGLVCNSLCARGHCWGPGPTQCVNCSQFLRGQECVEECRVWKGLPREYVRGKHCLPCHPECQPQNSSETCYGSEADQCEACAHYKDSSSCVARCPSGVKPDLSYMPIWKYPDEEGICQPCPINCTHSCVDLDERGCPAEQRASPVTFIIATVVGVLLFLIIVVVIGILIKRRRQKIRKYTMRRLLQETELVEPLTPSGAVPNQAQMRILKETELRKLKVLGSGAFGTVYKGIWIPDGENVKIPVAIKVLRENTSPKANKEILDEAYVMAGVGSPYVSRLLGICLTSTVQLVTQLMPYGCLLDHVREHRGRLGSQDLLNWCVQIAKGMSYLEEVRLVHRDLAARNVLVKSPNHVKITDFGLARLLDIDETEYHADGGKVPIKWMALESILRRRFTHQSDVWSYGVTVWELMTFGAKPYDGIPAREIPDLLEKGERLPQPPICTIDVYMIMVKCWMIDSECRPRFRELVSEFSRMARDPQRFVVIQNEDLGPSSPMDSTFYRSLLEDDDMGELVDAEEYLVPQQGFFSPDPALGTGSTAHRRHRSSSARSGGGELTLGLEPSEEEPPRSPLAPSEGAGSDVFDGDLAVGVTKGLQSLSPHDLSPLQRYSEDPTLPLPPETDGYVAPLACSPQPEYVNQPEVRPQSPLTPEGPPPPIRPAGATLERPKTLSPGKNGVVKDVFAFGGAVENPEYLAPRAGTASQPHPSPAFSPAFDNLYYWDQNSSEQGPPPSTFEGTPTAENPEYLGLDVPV

Legend:
HER2-mediated signaling = test: Effect of HER2 peptide on cell signaling (western blot); assay type: cell-based, human; settings: 5 and 100 μM, 48 hours
Description: SKBR3 cells are commonly used to evaluate HER2 signaling, and were grown in 6 well plates to ˜60% confluence. Unlabeled KSP* peptide was added to separate wells at concentrations of 5 and 100 μM. Lapatinib, a tyrosine kinase inhibitor, was used as a positive control and was added in concentrations of 1, 25, 100 and 1000 nM. Lapatinib stock solution starting at 1 mg/mL was diluted in DMSO and PBS. 1% DMSO treated cells and untreated cells were used as control. After 48 hours following treatment, the cells were harvested for western blot analysis. Anti-HER2 antibody (Cell Signaling, #2165), phospho-HER2/ErbB2 (Tyr1248) antibody (Cell Signaling, #2247), anti-AKT (Cell Signaling, #4691P), anti-ERK1/2 (Cell Signaling, #4695P), anti-phospho-AKT (pS473), (Cell Signaling, #4060P), anti-phospho-ERK1/2 (Cell Signaling, #4370P) and anti-tubulin (Invitrogen, #32-2600) were used per manufacturer's instructions.

[1] = target: T1, colonic adenomas that over express HER2 (Mus musculus, UniProt P70424); test: In vivo endoscopic NIR imaging of mouse colonic adenomas, topical peptide reagent; settings: CPC;Apc mice, topical administration
T1 construct: validate over expression of HER2 in mouse colonic dysplasia; from tissue; host or cells: colonic adenomas / colon of CPC;Apc mice (in vivo, excised colon, fixed sections)
Description: Mouse imaging studies were performed with approval of the University of Michigan Committee on the Use and Care of Animals (UCUCA). The mice were housed in pathogen-free conditions and supplied water ad libitum under controlled conditions of humidity (50±10%), light (12/12 hour light/dark cycle) and temperature (25° C.). Anesthesia was induced and maintained via a nose cone with inhaled isoflurane mixed with oxygen at a concentration of 2-4% at a flow rate of ˜0.5 L/min. The colon was first rinsed with tap water to remove mucous and debris. White light illumination was used first to identify anatomic landmarks, including polyps, mucosal folds, colonic segment, and distance of endoscope tip from anus, to register the in vivo images with histology. […] During imaging, we recorded the 1) distance between the endoscope tip and the anus and 2) clockwise location of each region of high intensity. […]
White light and fluorescence videos were exported in avi format with 24 (RGB) and 8 (grayscale) bit digital resolution for the color and fluorescence images, respectively. […] On the fluorescence images, 3 regions of interest (ROI) with dimensions of 25×25 pixels were picked to represent a range of staining for normal and diseased tissues and averaged. The mean intensities within these ROI were determined to calculate the target to-background (T/B) ratio.

[2] = target: T1, colonic adenomas that over express HER2; test: Ex vivo macroscopic fluorescence (IVIS) of excised mouse colon; assay type: in vivo; settings: after intravenous administration, n=4 mice
[3] = target: T2, HER2 over expressed by mouse colonic dysplasia (Mus musculus, UniProt P70424); test: Peptide reagent immunofluorescence on mouse colonic adenoma sections; settings: 2 μM, 10 min at RT, confocal microscopy
T2 construct: validate over expression of HER2 in mouse colonic dysplasia; from tissue; host or cells: colonic adenomas / colon of CPC;Apc mice (in vivo, excised colon, fixed sections)
Description: Specimens of mouse colonic adenoma were formalin fixed and processed, as described previously. Serial 5 μm sections were incubated with 2 μM of each peptide for 10 min at RT. The sections were washed 3× with PBS, and mounted with Prolong Gold reagent containing DAPI (Invitrogen). Adjacent sections were processed for histology (H&E).

[4] = target: T3, HER2 over expressed by human proximal colonic neoplasia (Homo sapiens, UniProt P04626); test: Binding of HER2 peptide reagent to FFPE human proximal colonic neoplasia sections
T3 construct: specimens of human proximal colon were obtained from the archived tissue bank; from tissue; host or cells: FFPE human proximal colon (normal, hyperplastic polyps, SSA, sporadic adenomas)

ErbB2 (HER2) = target: T4, ErbB2 (HER2) (Homo sapiens, UniProt P04626); test: Staining of FFPE human Barrett's esophagus specimens with peptide reagents; settings: excised human specimens, 5 μM, 10 min
T4 construct: specimens of human esophagus were obtained from an archived tissue bank; from tissue; host or cells: FFPE human esophagus (SQ, BE, LGD, HGD, EAC)
Description: Formalin-fixed, paraffin-embedded (FFPE) specimens of human esophagus were obtained from an archived tissue bank. 5 μm thick sections were cut, and mounted onto glass slides (Superfrost Plus, Fischer Scientific). The tissues were deparaffinized, and antigen retrieval was performed. The sections were blocked with protein serum for 15 min at room temperature followed by rinsing with PBS. The sections were then stained with either KSP*-Cy5.5 or RHP*-Cy5.5 at 5 μM concentration for 10 min at room temperature. The sections were then washed 3× for 3 min with PBS and further incubated with anti-HER2 antibody overnight at 4° C. Sections were washed 3× with PBST and mounted with Prolong Gold reagent containing DAPI (Invitrogen) using #1 cover glass ([…]).

HER2 [5] = target: T5, HER2 (Homo sapiens, UniProt P04626); test: Confocal fluorescence microscopy of peptide reagent binding to HT29 and SW480 cells; assay type: cell-based; parameters: host or cells: HT29, SW480
Description: Cells were washed with PBS and incubated with 5 μM of KSP*-Cy5.5 and PPS*-Cy5.5 for 30 min at 4° C. The cells were then washed 3× in PBS, fixed with ice cold 4% paraformaldehyde (PFA) for 10 min, washed 1× with PBS, and then mounted on glass slides with ProLong Gold reagent containing DAPI (Invitrogen). Confocal fluorescence images were collected with Cy5.5, and DAPI filters (Leica Inverted SPSX Confocal Microscope System). For antibody staining, the cells were pre-fixed with cold methanol for 10 min at −20° C. and blocked with 2% BSA for 30 min at RT. Cells were incubated with 1:450 dilution of anti HER2 antibody overnight at 4° C. The cells were washed 3× with PBS and processed for secondary staining. Goat-anti rabbit Alexa-Fluor 488 (AF488) was added to the cells and incubated for 1 hour at RT. Cells were further washed 3× with PBS and mounted onto glass cover slips. Fluorescence intensities from 3 independent images were quantified using custom Matlab (Mathworks) software.

HER2 [6] = target: T5, HER2; test: siRNA knockdown of HER2 and co-localization in HT29 cells; assay type: cell-based; parameters: host or cells: HT29, SW480
HER2 [7] = target: T5, HER2; test: Apparent dissociation constant to HT29 cells by flow cytometry; parameters: host or cells: HT29, SW480; settings: 4° C., 1 hour, read-out: apparent dissociation constant (binding affinity) kd
HER2 [8] = target: T5, HER2; test: Apparent association time constant to HT29 cells by flow cytometry; assay type: binding; parameters: host or cells: HT29, SW480; settings: 5 μM, 4° C.
HER2 [9] = target: T5, HER2; test: Staining of FFPE human BilIN specimens with peptide reagent and antibody; parameters: host or cells: HT29, SW480; settings: peptide reagent 5 μM, 10 min

SMILES: C[N+]1=C(C=CC=CC=C2N(CCCCCC(=O)NCCCC[C@H](NC(=O)[C@H](CO)NC(=O)CNC(=O)CNC(=O)CNC(=O)[C@H](Cc3ccccc3)NC(=O)[C@H](CCCNC(=N)N)NC(=O)[C@@H]3CCCN3C(=O)[C@H](CC(N)=O)NC(=O)[C@@H]3CCCN3C(=O)[C@H](CO)NC(=O)[C@@H](N)CCCCN)C(N)=O)c3ccc4ccccc4c3C2(C)C)C(C)(C)c2c1ccc1ccccc21 [KSP*-Cy5.5] (H-KSPNPRFGGGSK(X1)-NH2; N-terminus and C-terminus assumed)
- phosphorylation of HER2 (p-HER2), AKT (p-AKT) and ERK (p-ERK) (HER2-mediated signaling): no effect
- NIR fluorescence signal from polyp / flat adenoma [1]: increased intensity from polyp
- mean fluorescence intensity from adenomas versus uninvolved surrounding normal mucosa [2]: 5.03 fold
- staining of normal mouse colonic mucosa [3]: Minimal staining
- staining of sections of mouse colonic dysplasia [3]: increased cell surface staining; also recorded: intense staining
- staining of dysplastic versus normal crypts ([4]; human proximal colon sections, confocal microscopy): greater binding; also recorded: Increased fluorescence intensity
- mean (±sem) fluorescence intensity, hyperplastic polyps ([4]; human proximal colon, hyperplastic polyps (n=12), 5 μM): 0.12±0.08
- mean (±sem) fluorescence intensity, normal ([4]; human proximal colon, normal (n=30), 5 μM): 2.72±0.31
- mean (±sem) fluorescence intensity, sessile serrated adenomas ([4]; human proximal colon, sessile serrated adenomas (n=13), 5 μM): 6.07±0.73
- mean (±sem) fluorescence intensity, sporadic adenomas ([4]; human proximal colon, sporadic adenomas (n=30), 5 μM): 11.9±0.61
- Pearson's correlation coefficient ρ, co-localization of peptide reagent and antibody binding ([4]; human proximal colonic dysplasia sections): 0.50
- staining with cancer progression in Barrett's esophagus (SQ, BE, LGD, HGD, EAC) (ErbB2 (HER2)): Increasing fluorescence intensity
- staining with cancer progression in Barrett's esophagus (SQ, BE, LGD, HGD, EAC) (ErbB2 (HER2); listed as KSP-Cy5.5): increasing fluorescence intensity
- mean fluorescence intensity relative to PPS*-Cy5.5 control (HER2 [5]): significantly greater fluorescence intensity; also recorded: significantly greater than that for PPS*-Cy5.5
- binding to cell surface on confocal microscopy (HER2 [5]; 5 μM, 30 min at 4° C.): binds to the surface
- binding to siCL control HT29 cells compared to siHER2 knockdown cells (HER2 [6]; HT29 cells, confocal microscopy): Significantly reduced fluorescence intensities; also recorded: binds significantly greater
- Pearson's coefficient ρ, co-localization of peptide reagent and anti-HER2-AF488 binding (HER2 [6]; surface of HT29 cells): 0.743 and 0.74
- Kd (HER2 [7]): 21 nM
- apparent association time constant expressed as time (HER2 [8]): 7.14 min and 7.1 min
- apparent association time constant k (HER2 [8]; flow cytometry): 0.14 min⁻¹
- staining of human BilIN sections (HER2 [9]): increased cell surface staining
- staining of normal human biliary duct sections (HER2 [9]): minimal staining
